Test results from the supplement of paper PMC4683952.
The list shows a part of the results. How the calls were made is not given here. Most values lie within the scatter of the assay; repeated measurements hardly agree.

System: Lgr5 (MarsCy1-Lgr5-EGFP, U2OS)
Assay: cell-surface Lgr5 expression (SCi1 fluorescence, background-subtracted) relative to WT DMSO (fold of DMSO control); higher = more Lgr5 at the plasma membrane
Conditions: U2OS MarsCy1-Lgr5-EGFP stable; treatment time: overnight; library: Kinase Gold; 20 µM
Experimental: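 U2OS cells stably expressing MarsCy1-Lgr5-EGFP in 384-well plates were incubated overnight with single-dose compounds. Cell-surface Lgr5 was stained with SCi1 and scanned at 700 nm on a LI-COR Odyssey. Intensity was background-subtracted (parental U2OS) and expressed relative to WT DMSO wells.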

SMILES | cell-surface Lgr5 expression
COc1ccc2nc(C)cc(Nc3ccc(NC(C)=O)cc3)c2c1 | inactive: 1.3
CCn1c(=O)c(C(=O)Nc2ccc(Cl)cc2)c(O)c2ccccc21 | inactive: 0.651
O=C(CSc1nc2ccccc2[nH]1)NNC(=O)Cc1ccccc1 | inactive: 0.907
CC(=O)N/C(N)=N/c1nc(C)c2ccc(C)cc2n1 | inactive: 0.937
